Experimental data: PubChem BioAssay AID1224826 (NIAID, 2016)
Here is one part, drawn at random, of about 17,000 reagents. In the full data, about 1,110 (6.6%) got an active call. 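Active means lowered or raised reporter signal; replicate intensities are raw and not normalised per plate.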 A number with no mark means an inactive call. Reagents against one gene are numbered here. Further read-outs or replicates are left out here.

Purpose: 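Genes that change LPS-induced Tnf promoter activity in mouse macrophages when knocked down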 (primary screen)
System: RAW264.7 G9 macrophages from mouse bearing reporters for p65 (GFP) and the Tnf promoter (mCherry)
Knock-down reagent: siRNA pool against mouse genes, 100 nM
Duration: 16 h of LPS stimulation, after 2 days of siRNA transfection
Challenge: bacterial lipopolysaccharide (Salmonella minnesota R595), 10 ng/ml
Measurement: 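Imaged Tnf reporter mCherry in nuclei, minus background, normalised per plate to the median and expressed as robust z-scores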
Reading the numbers: Tnf reporter robust z-score: higher = stronger Tnf promoter reporter signal after LPS
Hit rule: 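a well counts as active at a score of -1.3 or below (Tlr4 knock-down control median) or above 3 (raised signal); controls and wells holding fewer than 50 cells are excluded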
Meaning of the calls: active = Tnf reporter clearly lowered or raised; inactive = no clear change in Tnf reporter

Tpm1 (tropomyosin 1, alpha)
- Tnf reporter robust z-score: -0.65
- fewer than 50 cells in well: enough cells in well

Lrfn3
- Tnf reporter robust z-score: -0.05
- fewer than 50 cells in well: enough cells in well

Ugt2b5 (UDP glucuronosyltransferase 2 family, polypeptide B5)
- fewer than 50 cells in well: fewer than 50 cells per well; well left out of calls

Dct (dopachrome tautomerase)
- Tnf reporter robust z-score: -0.05
- fewer than 50 cells in well: enough cells in well

Or5b24 (olfactory receptor family 5 subfamily B member 24)
- Tnf reporter robust z-score: -0.23
- fewer than 50 cells in well: enough cells in well

The list goes on, starting with the last 2 of the part before.
Dct (dopachrome tautomerase)
- Tnf reporter robust z-score: -0.05
- fewer than 50 cells in well: enough cells in well

Or5b24 (olfactory receptor family 5 subfamily B member 24)
- Tnf reporter robust z-score: -0.23
- fewer than 50 cells in well: enough cells in well

1600014C10Rik (RIKEN cDNA 1600014C10 gene)
- Tnf reporter robust z-score: 2.03
- fewer than 50 cells in well: enough cells in well

Or8s2 (olfactory receptor family 8 subfamily S member 2)
- Tnf reporter robust z-score: -0.07
- fewer than 50 cells in well: enough cells in well

Rtf2 (replication termination factor 2) #1
- fewer than 50 cells in well: fewer than 50 cells per well; well left out of calls

Rtf2 (replication termination factor 2) #2
- Tnf reporter robust z-score: -1.95 (active)
- fewer than 50 cells in well: enough cells in well

Or10a48 (olfactory receptor family 10 subfamily A member 48)
- Tnf reporter robust z-score: 2.36
- fewer than 50 cells in well: enough cells in well

Smarcd3 (SWI/SNF related BAF chromatin remodeling complex subunit D3)
- Tnf reporter robust z-score: 0.7
- fewer than 50 cells in well: enough cells in well

Wdr35 (WD repeat domain 35)
- Tnf reporter robust z-score: 1.16
- fewer than 50 cells in well: enough cells in well

Pigz (phosphatidylinositol glycan anchor biosynthesis, class Z)
- Tnf reporter robust z-score: 0.12
- fewer than 50 cells in well: enough cells in well

Cdrt4 (CMT1A duplicated region transcript 4)
- fewer than 50 cells in well: fewer than 50 cells per well; well left out of calls
